Screen size: about 320,000 compounds; about 22,000 (6.9%) were called active. Inconclusive means that the source gave no clear call. Such entries were picked first, then a sample of the others. Calls follow the shape of the dose curve; as a rule, active = well fitted inhibition curve with a large enough effect; inconclusive = small, poorly fitted or top-dose-only effect, or another doubt; inactive = no such curve, though single readings can be large or run the other way. Potencies of inconclusive entries are doubtful fits and often do not repeat.
Assay: Primary qHTS for delayed death inhibitors of the malarial parasite plastid, 96 hour incubation
Conditions: P. falciparum luciferase reporter growth; series mostly up to 28.7 µM; activity change, negative = inhibition: at the top concentration
Method in brief: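 96 h incubation, 37 C, 5% CO2, of luciferase-reporter P. falciparum-infected RBCs (2% hematocrit, 0.05% parasitemia final) with test compounds; endpoint luminescence.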
With `CN1Cc2sc(N)c(C#N)c2CC1(C)C` the Potency was inconclusive: 18.5 µM [inhibitor, single point]. For `O=C(c1ccco1)N1CCCC(c2nc3c(nnn3Cc3cccc(Cl)c3)c(=O)[nH]2)C1` (stereo unspecified), the “activity change, negative = inhibition” value was inactive: 52.5%. In the case of `CC(C)CNC(=S)N1CCC(NC(=O)C23CC4CC(CC(C4)C2)C3)CC1`, the Potency is reported as inconclusive: 18.5 µM [inhibitor, single point]. With `Cc1cc(Cl)c(OCCCNC2CCCC2)c(Br)c1` the Potency was inconclusive: 18.5 µM [inhibitor, partial curve, poor fit]. With `CN1C(=O)/C(=C/c2ccc(C(=O)NC3CCCC3)cc2)Oc2ccccc21` the Potency was inconclusive: 2.62 µM [inhibitor, full curve, poor fit]. In the case of `Cc1cccc(C(=O)Nc2ccccc2SCC(=O)Nc2ccc(C)c(Cl)c2)c1`, the “activity change, negative = inhibition” value is reported as inactive: 19.2%. In the case of `O=C(CN(CC1CCCO1)C(=O)CNS(=O)(=O)c1ccc(Cl)cc1)NCc1ccccc1` (stereo unspecified), the Potency is reported as inconclusive: 4.15 µM [inhibitor, partial curve]. With `O=c1oc2cc(OCc3ccc(F)cc3F)ccc2cc1-c1ccc2ccccc2n1` the Potency was inconclusive: 13.1 µM [inhibitor, single point]. For `Cc1ccc(NC(=O)c2sc3nc(CCl)[nH]c(=O)c3c2C)c(C)c1`, the Potency was inconclusive: 11.7 µM [inhibitor, single point]. With `CCn1c(SCC(=O)Nc2nccc(C)n2)nc2ccccc21` the “activity change, negative = inhibition” value was inactive: 93.1%. For `CC(C)c1ccc(NC(=O)c2cc(S(=O)(=O)N3CCCC3)c[nH]2)cc1`, the “activity change, negative = inhibition” value was inactive: -15.1%. With `O=C(C1CC1)N1N=C(c2ccncc2)CC1(O)C(F)(F)F` (stereo unspecified) the “activity change, negative = inhibition” value was inactive: 88.7%. With `Oc1ccc(-c2csc(-c3ccccc3)n2)cc1O` the “activity change, negative = inhibition” value was inactive: -27.6%. For `Cc1cc(N2CCN(c3ccc(F)cc3)CC2)n2ncnc2n1`, the “activity change, negative = inhibition” value was inactive: 33.7%. For `Cc1nc(-c2ccc(S(=O)(=O)N3CCOCC3)cc2)cs1`, the Potency was inconclusive: 11.7 µM [inhibitor, single point]. For `Cc1ccc(C2(c3noc(CN(C)Cc4cnn(C)c4)n3)CCCC2)cc1`, the Potency was active: 11.7 µM. In the case of `CCOc1cccc(-c2nnc3sc(C4CCCCC4)nn23)c1`, the Potency is reported as active: 10.4 µM. For `N#CCCn1cc(/C=N/O)c(-c2ccc(-c3ccccc3)cc2)n1`, the Potency was inconclusive: 23.3 µM [inhibitor, partial curve, poor fit]. With `CCOC(=O)c1c(C)n(C)c2ccc(OC)c(NS(=O)(=O)CC)c12` the “activity change, negative = inhibition” value was inactive: -42.6%. With `Cc1cc(C)c(OCC(=O)N(Cc2cccs2)C2CCS(=O)(=O)C2)c(C)c1` (stereo unspecified) the Potency was inconclusive: 3.7 µM [inhibitor, partial curve]. With `CCOC(=O)c1sc(Nc2nc3c(OC)cccc3s2)cc1C` the “activity change, negative = inhibition” value was inactive: -64%.

Reference: PubChem BioAssay AID504834 (National Center for Advancing Translational Sciences (NCATS), 2011)
% is scaled to controls: 0 for no effect and ±100 for the full control effect; potency is read from the fitted curve at half-maximal effect.
